For data set [1], the target named is Bovine serum albumin (BSA) (Bos taurus) (UniProt P02769). Kind of data set: EMSA. The following applies: annealed and not annealed, HEPES/Na+, 1:1.3, same result for all three dimers; 25 mM HEPES, 150 mM NaCl, pH 7.4; 30 pmol oligo + 40 pmol protein in 9 uL, 30 min at 4 C; 7% native PAGE in TAE 1X pH 7.8 at r.t.; commercial protein; folded or branched DNA. On the technique in general: Mobility shift assays separate free from complexed probe on a gel.

Chains of the proteins cited; added tags and fusions are not shown. Residues count along the entry.
UniProt P02769, 25-607: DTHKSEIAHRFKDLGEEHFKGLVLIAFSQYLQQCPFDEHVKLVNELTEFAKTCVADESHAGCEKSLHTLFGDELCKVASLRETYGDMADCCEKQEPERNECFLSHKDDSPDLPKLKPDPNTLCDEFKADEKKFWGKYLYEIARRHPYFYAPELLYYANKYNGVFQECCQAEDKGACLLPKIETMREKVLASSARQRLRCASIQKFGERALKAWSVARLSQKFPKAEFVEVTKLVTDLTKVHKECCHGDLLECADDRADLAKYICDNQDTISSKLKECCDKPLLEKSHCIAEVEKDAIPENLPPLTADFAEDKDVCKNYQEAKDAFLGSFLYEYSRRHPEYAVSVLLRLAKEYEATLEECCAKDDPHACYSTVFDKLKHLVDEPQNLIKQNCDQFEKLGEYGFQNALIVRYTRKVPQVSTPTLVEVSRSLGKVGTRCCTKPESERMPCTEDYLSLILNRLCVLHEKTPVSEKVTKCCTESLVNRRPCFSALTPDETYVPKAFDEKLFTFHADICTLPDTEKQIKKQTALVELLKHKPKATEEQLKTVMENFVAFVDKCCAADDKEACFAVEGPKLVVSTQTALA

Another data set relates to VEGF165. Kind of data set: EMSA. As to conditions: HEPES/Na+, 25 mM HEPES, 150 mM NaCl, pH 7.4, 30 pmol oligo + 40 pmol protein in 9 uL, 30 min at 4 C, 7% native PAGE in TAE 1X pH 7.8 at r.t., recombinant protein, folded or branched DNA.

For some assays here: Negatives hold for the conditions tested. For some assays here: The exact form of at least one protein or probe is not confirmed. For some assays here: Weaker means in comparison with the reference protein, sequence or condition of that experiment. For some assays here: At least one verdict was read from the data and is not stated in words by the source.

TGTGGGGGTGGACGGGCCGGGTAGA [V7t1]: the binding result is “no binding” in data set [1]; “binds” in the data set on VEGF165 (annealed, 1:1.3 oligo/protein); “binds” in the data set on VEGF165 (not annealed, 1:1.3).
On to TGTGGGGGTGGACGGGCCGGGTAGA [bisV7t1HEG2], for which the binding result was “binds more weakly” with VEGF165 (annealed, 1:1.3, retarded band, free band not fully gone, two V7t1 copies joined 3' to 5' by HEG-based linker (C24H51O20P3), same polarity) and “binds” with VEGF165 (not annealed, 1:1.3, free band reduced, aggregates present, two V7t1 copies joined 3' to 5' by HEG-based linker (C24H51O20P3), same polarity).

The values above are taken from article PMC7139925.
